PubChem BioAssay AID1259254, NCATS, 2017

Aim: 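Genome-wide screen for genes that prevent DNA re-replication in cancer cells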 (primary screen)
Cells: human HCT116 colorectal cancer cells
Reagents: single siRNA against human genes
Timing: 3 days
Read-out: 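Nuclei stained with Hoechst and imaged; cell-cycle phase assigned by DNA content; G2 share scaled per plate, non-targeting siRNA 0%, GMNN siRNA 100%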
Direction: G2 robust z-score and G2 cells, % of GMNN control: higher = more G2 cells, more excess DNA replication
Hit rule: 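An siRNA counts as active if its G2 robust z-score lies at least 5 MADs above the screen median; here such calls match roughly 38% of GMNN control or more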
In all, the deposit lists about 59,000 reagents; this is an unselected part. About 1,550 of all reagents (2.6%) were called active. 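G2 share is only a proxy for re-replication; each gene was hit by three separate siRNAs, and active genes were retested.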 Reagents against one gene are numbered here. Not all columns of the deposit are shown. Not stated in the record: the amount of reagent.

| Target gene | reagent | G2 robust z-score | G2 cells, % of GMNN control | outcome |
| --- | --- | --- | --- | --- |
| ZNF688 | 1 | 0.758 | 8.3 | inactive |
| ZNF688 | 2 | 1.59 | 14.2 | inactive |
| ZNF688 | 3 | 0.747 | 8.22 | inactive |
| SPATS1 | 1 | 1.13 | 10.9 | inactive |
| SPATS1 | 2 | 2.19 | 18.4 | inactive |
| SPATS1 | 3 | -0.259 | 1.15 | inactive |
| CFL1 | 1 | 8.26 | 61.1 | active |
| CFL1 | 2 | 1.39 | 12.7 | inactive |
| CFL1 | 3 | 1.3 | 12.1 | inactive |
| STXBP1 | 1 | -0.177 | 1.72 | inactive |
| STXBP1 | 2 | 1.9 | 16.3 | inactive |
| STXBP1 | 3 | -0.447 | -0.174 | inactive |
| DMAC2L | 1 | 3.37 | 26.7 | inactive |
| DMAC2L | 2 | 0.757 | 8.3 | inactive |
| DMAC2L | 3 | -0.539 | -0.826 | inactive |
| CCR4 | 1 | -0.769 | -2.44 | inactive |
| CCR4 | 2 | -0.386 | 0.25 | inactive |
| CCR4 | 3 | 0.981 | 9.87 | inactive |
| CHCHD10 | 1 | 1.65 | 14.6 | inactive |
| CHCHD10 | 2 | 2.65 | 21.6 | inactive |
| CHCHD10 | 3 | 0.832 | 8.82 | inactive |
| PRR13 | 1 | -0.665 | -1.71 | inactive |
| PRR13 | 2 | 1.76 | 15.3 | inactive |
| PRR13 | 3 | 2.19 | 18.4 | inactive |
| DKK2 | 1 | -0.648 | -1.59 | inactive |
| DKK2 | 2 | 2.73 | 22.2 | inactive |
| DKK2 | 3 | -0.9 | -3.36 | inactive |
| CIBAR2 | 1 | -0.451 | -0.207 | inactive |
| CIBAR2 | 2 | -0.728 | -2.16 | inactive |
| CIBAR2 | 3 | 1.51 | 13.6 | inactive |
| DRC1 | 1 | -0.259 | 1.14 | inactive |
| DRC1 | 2 | 1.6 | 14.2 | inactive |
| DRC1 | 3 | 0.268 | 4.85 | inactive |
| PLBD2 | 1 | -0.605 | -1.29 | inactive |
| PLBD2 | 2 | 0.603 | 7.21 | inactive |
| PLBD2 | 3 | -0.544 | -0.864 | inactive |
| FAM9B | 1 | -0.578 | -1.1 | inactive |
| FAM9B | 2 | 0.567 | 6.95 | inactive |
| FAM9B | 3 | -0.276 | 1.03 | inactive |
| IGSF5 | 1 | 0.157 | 4.07 | inactive |
| IGSF5 | 2 | 0.507 | 6.53 | inactive |
| IGSF5 | 3 | 0.269 | 4.86 | inactive |
| IKZF3 | 1 | -0.405 | 0.118 | inactive |
| IKZF3 | 2 | 1 | 10 | inactive |
| IKZF3 | 3 | 2.11 | 17.8 | inactive |

Continued; the last 2 above are carried over.
| Target gene | reagent | G2 robust z-score | G2 cells, % of GMNN control | outcome |
| --- | --- | --- | --- | --- |
| IKZF3 | 2 | 1 | 10 | inactive |
| IKZF3 | 3 | 2.11 | 17.8 | inactive |
| SCHIP1 | 1 | 0.0901 | 3.6 | inactive |
| SCHIP1 | 2 | 0.331 | 5.3 | inactive |
| SCHIP1 | 3 | -1.02 | -4.17 | inactive |
| TMEM192 | 1 | -1.37 | -6.7 | inactive |
| TMEM192 | 2 | -0.379 | 0.302 | inactive |
| TMEM192 | 3 | 0.617 | 7.31 | inactive |
| REXO1L8P | 1 | -0.517 | -0.672 | inactive |
| REXO1L8P | 2 | -0.385 | 0.26 | inactive |
| REXO1L8P | 3 | 0.0448 | 3.28 | inactive |
| USH1G | 1 | 1.19 | 11.4 | inactive |
| USH1G | 2 | -0.352 | 0.494 | inactive |
| USH1G | 3 | -0.448 | -0.188 | inactive |
| RGPD3 | 1 | -0.156 | 1.87 | inactive |
| RGPD3 | 2 | -0.147 | 1.93 | inactive |
| RGPD3 | 3 | -0.928 | -3.56 | inactive |
| CCDC81 | 1 | 1.99 | 16.9 | inactive |
| CCDC81 | 2 | 0.24 | 4.66 | inactive |
| CCDC81 | 3 | -0.296 | 0.882 | inactive |
| LCE1B | 1 | -0.105 | 2.23 | inactive |
| LCE1B | 2 | 1.01 | 10.1 | inactive |
| LCE1B | 3 | 0.468 | 6.26 | inactive |
| APOBEC3A | 1 | 0.795 | 8.56 | inactive |
| APOBEC3A | 2 | -0.192 | 1.62 | inactive |
| APOBEC3A | 3 | 0.278 | 4.93 | inactive |
